Experimental findings from patent publication US20190389910A1 (ORUM THERAPEUTICS, published 2019) are described below.

Results are given in words; binding and its absence hold for the method and conditions named. Some entries that bind do so weakly or less than the wild type.

Assay [1] has as its target T1, EpCAM (epithelial cell adhesion molecule) expressed on the cell surface of human tumor cells (human) (UniProt P16422).
T1 sequence (looked up): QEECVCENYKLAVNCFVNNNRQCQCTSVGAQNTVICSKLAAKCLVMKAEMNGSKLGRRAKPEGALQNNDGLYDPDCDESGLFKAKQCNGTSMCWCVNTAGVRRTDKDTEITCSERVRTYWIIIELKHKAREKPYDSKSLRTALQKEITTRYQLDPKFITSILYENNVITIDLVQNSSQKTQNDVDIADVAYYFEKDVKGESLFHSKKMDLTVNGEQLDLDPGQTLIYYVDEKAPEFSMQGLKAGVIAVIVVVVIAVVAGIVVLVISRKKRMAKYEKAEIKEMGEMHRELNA
The assay is described as follows: flow cytometry, 100 nM antibody, 4 °C.

Assay [2] concerns the target T1, EpCAM (epithelial cell adhesion molecule) expressed on the cell surface of human tumor cells (human). The assay is described as follows: flow cytometry on HCT116, SW480 and HeLa cells; 100 nM antibody with 300 IU/mL heparin, 1 h at 4 °C, Alexa488 anti-human Fc. (In flow cytometry, cells or beads pass a laser one at a time.)

B1: epCT05 (antibody, V domains shown)
VH: EVQLVESGGGLVQPGGSLRLSCAASGYTFTSYVMHWVRQAPGKGLEWVSAINPYNDGNYYADSVKGRFTISRDNSRKTLYLQMNSLRAEDTAVYYCARGAYKRGYAMDYWGQGTTVTVSS
VL: DIQMTQSPSSLSASVGDRVTITCKSSQSLLNSRDGKNYLAWYQQKPGKAPKLLIYDASNLETGVPSRFSGSGSGTDFTFTISSLQPEDIATYFCQQYWYWMYTFGGGTKVEIKR
modifications: disulfide bond Cys5-Cys10 closes the cyclic peptide
Consider B1, for which the binding result in assay [1] and in assay [2] was “binds” in each case.
